# Test results as given in PubChem BioAssay AID2453 (Broad Institute, 2010).
# This is one part of the list. Potency and affinity values are given separately. Entries without a call are filed as inconclusive in the source.
# Experiment: PubChem AID 2453
# Settings: H4 neuroglioma, luciferase reporter luminescence; at 19.5 µM (top of the series)
smiles,measurement,value
CN(C)c1nc(N)nc(CSc2nnnn2-c2cccc3ccccc23)n1,activation,-17.8%
